# Experimental data taken from US10457666B2, “Stable crystal form of tipiracil hydrochloride and crystallization method for the same” (TAIHO PHARMACEUTICAL CO., LTD., priority 2013, dated 2019).
# Test: Residual ethanol in crystals by 1H-NMR
# Type: physicochemical
# Conditions: 1H-NMR (DMSO-d6, TMS); ICH reference value 5000 ppm; hydrochloride
# Method: (1) First, 100 mL of 6 N hydrochloric acid and 220 mL of water were mixed, and 95.1 g of tipiracil obtained in accordance with the method described in WO 96/30346 was dissolved therein with heating. The solution was hot filtered at a temperature of around 60° C. and then 1280 mL of ethanol was added thereto. The mixture was maintained at a temperature of around 60° C. for 2 hours by heating and was cooled with ice. The resulting crystals were separated by filtration, and thus 89.3 g of anhydrous Crystal I of tipiracil hydrochloride was obtained (recovery rate: 82%). […] (2) Tipiracil hydrochloride obtained in accordance with the method described in WO 96/30346 was dissolved in water with heating. The solution was hot filtered at a temperature of around 60° C. and then ethanol and the seed crystal (Crystal I) obtained in the above (1) were added thereto. The mixture was maintained at a temperature of around 60° C. for 2 hours by heating. The resulting crystals were separated by filtration, and thus anhydrous Crystal I of tipiracil hydrochloride was obtained. […] Moreover, the results of TG/DTA show an endothermic peak at a temperature of 262.2° C.
# (1) In 20 mL of 6 N hydrochloric acid and 230 mL of water, 22.0 g of tipiracil 1 obtained in accordance with the method described in WO 96/30346 was dissolved. The solution was filtered and then concentrated, and 100 mL, of ethanol was added thereto at room temperature. The resulting crystals were separated by filtration, and thus 19.7 g of Crystal III of tipiracil hydrochloride was obtained (recovery rate: 78%). […] This value exceeds the reference value (5000 ppm) for ethanol described in the Guideline for Residual Solvents in ICH guidelines. (2) Tipiracil obtained in accordance with the method described in WO 96/30346 was dissolved in ethanol and concentrated hydrochloric acid was added thereto. The mixture was stirred at a temperature of 64° C. for 1 hour and was cooled to a temperature of 30° C. The resulting crystals were separated by filtration and washed with methanol, and thus Crystal III of tipiracil hydrochloride was obtained. […]
row,SMILES,amount of residual ethanol contained in the crystals
1,"Cl.N=C1CCCN1Cc1[nH]c(=O)[nH]c(=O)c1Cl [Crystal I, 5-chloro-6-(2-iminopyrrolidin-1-yl)methyl-2,4(1H,3H)-pyrimidinedione hydrochloride]",< 5000 ppm
2,"Cl.N=C1CCCN1Cc1[nH]c(=O)[nH]c(=O)c1Cl [Crystal II, 5-chloro-6-(2-iminopyrrolidin-1-yl)methyl-2,4(1H,3H)-pyrimidinedione hydrochloride]",< 5000 ppm
3,"Cl.N=C1CCCN1Cc1[nH]c(=O)[nH]c(=O)c1Cl [Crystal III, 5-chloro-6-(2-iminopyrrolidin-1-yl)methyl-2,4(1H,3H)-pyrimidinedione hydrochloride]",16000 ppm
